Experimental data taken from PubChem BioAssay AID2718 (Broad Institute, 2010).
Among all 320,000 compounds or so, about 480 (0.15%) were called active. The inconclusive results got no clear call from the source; some entries with a clear call stand among them for comparison. Rule as the data show it: active = inhibition above about 26% (passing the limit was not always enough); inconclusive = no clear call, values can overlap the other calls.

Sequences of proteins named here, by UniProt entry; tags and fusion partners are left off.
UniProt O15379, whole entry, looked up: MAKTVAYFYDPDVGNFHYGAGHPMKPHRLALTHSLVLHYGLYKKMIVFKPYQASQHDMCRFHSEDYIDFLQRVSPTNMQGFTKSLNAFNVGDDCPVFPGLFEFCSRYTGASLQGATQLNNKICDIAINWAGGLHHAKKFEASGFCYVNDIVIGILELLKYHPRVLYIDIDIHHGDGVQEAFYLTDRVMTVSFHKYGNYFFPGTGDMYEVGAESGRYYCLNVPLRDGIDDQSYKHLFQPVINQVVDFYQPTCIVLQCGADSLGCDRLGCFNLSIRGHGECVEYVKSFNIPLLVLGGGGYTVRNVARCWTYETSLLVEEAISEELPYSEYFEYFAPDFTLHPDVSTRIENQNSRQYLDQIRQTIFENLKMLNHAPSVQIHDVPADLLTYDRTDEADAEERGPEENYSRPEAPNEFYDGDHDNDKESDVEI

What follows are compounds tested against Histone deacetylase 3 (Homo sapiens) (UniProt O15379) (assay: HDAC3 deacetylase inhibitors, primary screen, biochemical, fluorescence, cell-free homogeneous (AID 2718)). Settings: recombinant HDAC3, fluorogenic peptide/trypsin coupled, at 8.3 µM, stronger effect = higher value.

Row | SMILES | inhibition
1 | Cc1ccc(S(=O)(=O)Cn2cnnn2)cc1 | inconclusive: 17.2%
2 | Cc1nn(Cc2ccccc2)c(C)c1/C=N/NC(=O)c1ccncc1 | inconclusive: 17.8%
3 | COc1ccccc1NC(=O)Nc1nnc(Cc2ccccc2F)s1 | inconclusive: 14.9%
4 | CN(Cc1ccccc1)C(=O)c1ccc(NC(=O)Cc2cccc(NC(=O)C3CCN(C(=O)C4CCCC4)CC3)c2)cc1 | inconclusive: 18.2%
5 | COC(=O)CCC(=O)NNC(=O)CCCOc1ccc(Cl)cc1Cl | inconclusive: 15.1%
6 | O=C(Cc1nc2ccccc2s1)c1ccc(O)cc1O | inconclusive: 17%
7 | CCCC(=O)n1nc(-c2ccco2)nc1SCc1ccccc1 | active: 47.8%
8 | COc1c(C)cccc1C(=O)Nc1ccc(N2CCN(S(C)(=O)=O)CC2)cc1 | inconclusive: 16.4%
9 | CCOc1ccc(NC(=O)CCNS(=O)(=O)c2cccs2)cc1 | inconclusive: 14.4%
10 | Cc1ccc2[nH]c(=O)c(CN(CCc3ccccc3)C(c3nnnn3Cc3ccco3)C(C)C)cc2c1 (stereo not drawn) | inconclusive: 18%
11 | CCCN1CCC(NC(=O)Cc2ccccc2C)CC1 | inconclusive: 15.1%
12 | COc1ccccc1-c1nnc(SC(C(=O)c2c[nH]c3ccccc23)c2ccccc2)n1C (stereo not drawn) | inconclusive: 26.1%
13 | O=C(NCCC1=CCCCC1)c1cc(COc2ccc(F)cc2Cl)on1 | inactive: 6.87%
14 | N/C(=N\O)c1ccc(N2CCN(c3ncccc3C(F)(F)F)CC2)nc1 | inconclusive: 20%
15 | Cc1ccc(S(=O)(=O)N/N=C/c2c[nH]c3ccccc23)cc1 | inconclusive: 23.1%
16 | NNC(=O)COc1ccc(C2SCCS2)cc1 | inconclusive: 34.1%
17 | O=C(c1cnn2c(C(F)(F)F)cc(-c3ccc4c(c3)OCO4)nc12)N1CCCCC1 | inactive: -7.21%
18 | CCCc1nn(C)c(C(=O)Nc2cccc(C)c2)c1Cl | inactive: 3.79%
19 | O=C(O)c1nn(-c2ccccc2-c2n[nH]c(=O)[nH]c2=O)c(=O)[nH]c1=O | inactive: -2.18%
20 | O=c1c2ccccc2c(-c2ccc(O)cc2)nn1-c1cccc(C(F)(F)F)c1 | inactive: 14.7%
21 | COc1cccc(NC(=O)CN(C)C(=O)c2cccnc2Nc2cccc(C(F)(F)F)c2)c1 | inconclusive: 18.2%
22 | Cc1ccc(N2NC(=O)/C(=C/c3ccc(-c4ccc(Cl)c(C(=O)O)c4)o3)C2=O)cc1C | inactive: -2.46%

Row | SMILES | inhibition
23 | CCOC(=O)COn1c(=O)c[n+]([O-])c2ccccc21 | inactive: -0.323%
24 | S=C(NCc1ccco1)Nc1ccc(Oc2ccc(Cl)cc2)cc1 | inconclusive: 21.5%
25 | Cc1ccc2occ(/C=N/NC(N)=S)c(=O)c2c1 | inactive: -9.95%
26 | CCOCc1nnc(NC(=O)c2cc(OC)cc(OC)c2)s1 | inconclusive: 14.2%
27 | COC(=O)c1ccc(Cn2nnc3c(=O)[nH]c(C4CCCN(S(=O)(=O)c5ccccc5Cl)C4)nc32)cc1 (stereo not drawn) | inconclusive: 25.3%
28 | CS(=O)(=O)N1CCN(CCN2C(=O)c3cccc4cccc(c34)C2=O)CC1 | inconclusive: 18.2%
29 | COc1ccc(/C=C2\SC(N)=NC2=O)cc1Br | inactive: 4.63%
30 | COc1ccc(N2CCN(CC(=O)NCc3ccccc3)CC2)cc1 | inactive: -4.96%
31 | CCCCNC(=O)CN(CCc1ccccc1)S(C)(=O)=O | inconclusive: 20.6%
32 | COc1ccc(CN([C@H](CO)CC(C)C)S(=O)(=O)N(Cc2ccccc2)[C@H](CO)CC(C)C)cc1 | inconclusive: 13%
33 | CC(C)C[C@H](NC(=O)c1[nH]cnc1C(=O)N[C@@H](C)C(=O)OCc1ccccc1)C(=O)OCc1ccccc1 | inconclusive: 23.2%
34 | CCC(C)N(C(=O)c1csnn1)C(C(=O)NC1CCCC1)c1c(F)cccc1Cl (stereo not drawn) | inconclusive: 22.1%
35 | CCOc1ccc(-c2cc3cc(OC)c(OC)cc3c(C)n2)cc1 | inconclusive: 23%
36 | CO/N=C/c1ccc(N2CCN(C(=O)c3cccc(C(F)(F)F)c3)CC2)c([N+](=O)[O-])c1 | inconclusive: 27.5%
37 | O=C(COC(=O)c1ccc(O)cc1O)Nc1cccc2ccccc12 | inactive: 1.24%
38 | CCOC(=O)c1[nH]c2ccccc2c1N=CN(C)C | inactive: 1.51%
39 | O=C1CN(c2ccccc2Cl)C(=O)CN1c1ccccc1Cl | inconclusive: 22.5%
40 | COC(=O)c1cc(NC(=S)NCc2ccc(Cl)cc2)cc(C(=O)OC)c1 | inactive: 15.7%
41 | COc1ccc(-c2cc(=O)oc3c(C)c(OCC(=O)N(C)C)ccc23)cc1 | inconclusive: 20.2%
42 | CC(C)[C@H](NC(=O)N1CCn2c1nc1ccccc12)C(=O)NCc1ccccc1Cl | inactive: -1.41%
43 | CCn1c(SCC(=O)Nc2ccccc2C(=O)OC)nnc1-c1cccc(C)c1 | inconclusive: 20.6%
44 | CN(C)CCCN(C(=O)c1ccc2c(c1)CCCC2)c1nc2cc3c(cc2s1)OCO3 | inconclusive: 22.1%

Row | SMILES | inhibition
45 | CCC(C)(C)NC(=O)C(OC(=O)c1cc2sccc2n1C)c1ccc(OC)cc1 (stereo not drawn) | inconclusive: 16.1%
46 | Cc1ccc(-n2nnnc2SCC(=O)NCCC2=CCCCC2)c(C)c1 | inconclusive: 30.6%
47 | Cc1cc(-c2n[nH]c(=S)n2/N=C/c2ccc(Br)s2)n[nH]1 | inconclusive: 19.3%
48 | O=C(C1CCCCC1)N(Cc1ccccc1)c1ccccn1 | inconclusive: 16.8%
49 | FC(F)Sc1ccc(NC(=S)NCC2CCCCC2)cc1 | inconclusive: 17%
50 | O=C(c1cc(-c2ccc(O)cc2)on1)N1CCCCCC1 | inactive: 1.92%
51 | COc1ccc(S(=O)(=O)N2CCOC2CNC(=O)C(=O)NCC(C)C)cc1OC (stereo not drawn) | inconclusive: 21.3%
52 | Cc1nn(C)cc1CNC(=O)Nc1cccc(Cl)c1 | inconclusive: 16.3%
53 | Cc1ccc(N)cc1-n1c(C)ccc1C | inconclusive: 34.5%
54 | COc1nccnc1NS(=O)(=O)c1ccc(NC(=S)NC(=O)c2cccc(F)c2)cc1 | inactive: 11.1%
55 | C=C(C)C(=O)OC1(C(F)(F)F)Oc2cc(C)ccc2NC1=O (stereo not drawn) | active: 28.6%
56 | CC(C)n1cc(CN2CCN(C)C(CCO)C2)c2ccccc21 (stereo not drawn) | inactive: -3.29%
57 | Cc1ccc2nc(SCC(=O)Nc3c(F)cccc3F)[nH]c2c1 | inactive: -8.93%
58 | NS(=O)(=O)c1cccc(NC(=O)CN2CCN(Cc3ccc4c(c3)OCO4)CC2)c1 | inconclusive: 17.3%
59 | Cc1ccc(C(=O)N/C(=C/c2ccccc2)C(=O)NC(Cc2ccccc2)C(=O)O)cc1 (stereo not drawn) | inconclusive: 16.3%
60 | Cc1ccc(S(=O)(=O)Nc2ccc3c4c(cccc24)CC3)c(C)c1 | inactive: 12.8%
61 | Cc1ccc(CNC(=O)c2ccc(NC(=O)CCS(=O)(=O)c3cccs3)cc2)cc1 | inconclusive: 21.6%
62 | C/C(=N\NC(=O)COc1ccc(C)cc1Br)c1cc([N+](=O)[O-])cs1 | inconclusive: 15.8%
63 | CC1=NOC(=O)/C1=C/c1ccc(N(C)C)cc1 | inconclusive: 18.1%
64 | C#CCOCCOCCOCCNc1nc(N2CCN(C(=O)CCCCCCCCCCNC(=O)[C@@H](CCSC)n3cc(CCO)nn3)CC2)nc(N2CCN(C(=O)CCCCCCCCCCNC(=O)[C@H](CCCN=C(N)N)n3cc(C[C@@H](C)CC)nn3)CC2)n1 | active: 69.2%
65 | O=C(O)CC(NC(=O)c1ccncc1)c1ccccc1 (stereo not drawn) | inconclusive: 12.6%
66 | O=C(Cn1nc(-c2ccc(Cl)cc2)c2ccccc2c1=O)NCC1CCCO1 (stereo not drawn) | inactive: 0.818%

Row | SMILES | inhibition
67 | Cc1ccc(S(=O)(=O)Nc2ccc(O)c3ncccc23)cc1 | inconclusive: 16.1%
68 | C#CCOCCOCCOCCNc1nc(N2CCN(C(=O)C(Cc3ccc(O)cc3)n3cc(C(N)CC(C)C)nn3)CC2)nc(N2CCN(C(=O)C(Cc3cc4ccccc4[nH]3)n3cc(C(N)Cc4ccc(O)cc4)nn3)CC2)n1 (stereo not drawn) | inconclusive: 18.5%
69 | CC(NCc1ccc(F)cc1)C(=O)NC1CCCCC1 (stereo not drawn) | inactive: 4.02%
70 | O=c1c2ccccc2[nH]c(=S)n1CCCN1CCOCC1 | inconclusive: 15.5%
71 | COC(=O)CCC(=O)NC(=S)Nc1sc(C)c(C)c1C(N)=O | inactive: 2.77%
72 | O=C(Nn1cnnc1)c1ccc(Cl)cc1 | inconclusive: 13.7%
73 | C#CCSc1nncn1C(=O)/C=C/c1ccccc1 | active: 73.4%
74 | Clc1ccccc1-c1nnc2sc(-c3ccc4c(c3)OCO4)nn12 | inactive: -4.64%
75 | c1ccc(CCCN2CCOCC2)cc1 | inactive: -4.61%
76 | CC1(C)Cc2ccccc2C(c2cc3ccccc3oc2=O)=N1 | inactive: 2.69%
77 | CCN(CC)c1ccc(C2N(C(=O)N3CCOCC3)CCN2S(=O)(=O)c2ccc(C)cc2)cc1 (stereo not drawn) | inconclusive: 12.5%
78 | Nn1c(CSc2nc3ccccc3o2)nnc1CSc1nc2ccccc2o1 | inactive: 1.95%
79 | Cc1scc(C(=O)NNC(=S)NC(C)c2ccccc2)c1C (stereo not drawn) | inconclusive: 21.1%
80 | COc1ccc(S(=O)(=O)n2nc(OC(=O)c3ccccc3)cc2N)cc1 | active: 53.9%
81 | O=C(COC(=O)c1nc(Cl)ccc1Cl)Nc1ccccc1OC(F)F | inconclusive: 14.6%
82 | COc1cc(CN2CCc3ccccc3C2)ccc1O | inactive: -0.471%
83 | CCc1cccc(C)c1NC(=O)CSc1nc(C)c(C)o1 | inconclusive: 24.8%
84 | CCNC(=O)C(=O)NCC1CCCN1S(=O)(=O)c1cccs1 (stereo not drawn) | inconclusive: 15.7%
85 | COc1ccc(N2C(=O)C3C(C2=O)C2C=CC3C23CC3)c(OC)c1 (stereo not drawn) | inconclusive: 36.5%
86 | O=C(O)CCNC(=O)/C(=C/c1ccco1)NC(=O)c1ccco1 | inconclusive: 7.34%
87 | O=C(CSc1nccc(-c2cccs2)n1)Nc1cccc(Cl)c1Cl | inconclusive: 14.3%
88 | COc1ccc(NC(=O)O/N=C/c2ccc(N(C)C)cc2)cc1 | inconclusive: 19.1%

Reprinted at random: 4 records from the list, in no set order.
Row | SMILES | inhibition
55 | C=C(C)C(=O)OC1(C(F)(F)F)Oc2cc(C)ccc2NC1=O (stereo not drawn) | active: 28.6%
87 | O=C(CSc1nccc(-c2cccs2)n1)Nc1cccc(Cl)c1Cl | inconclusive: 14.3%
9 | CCOc1ccc(NC(=O)CCNS(=O)(=O)c2cccs2)cc1 | inconclusive: 14.4%
54 | COc1nccnc1NS(=O)(=O)c1ccc(NC(=S)NC(=O)c2cccc(F)c2)cc1 | inactive: 11.1%
